Values quoted from earlier work as cited in US20040214897A1, “Uses for 2-amino-2-propane-1,3-diols” (priority 2001, published 2004).
At least one compound was matched to its structure with a doubt left.

Test system: several yeast strains
Conditions: background statement; cited from earlier work

| Compound | growth of several yeast strains |
| --- | --- |
| CO[C@H]1C[C@@H]2CC[C@@H](C)[C@@](O)(O2)C(=O)C(=O)N2CCCC[C@H]2C(=O)O[C@H]([C@H](C)C[C@@H]2CC[C@@H](O)[C@H](OC)C2)CC(=O)[C@H](C)/C=C(\C)[C@@H](O)[C@@H](OC)C(=O)[C@H](C)C[C@H](C)/C=C/C=C/C=C/1C [rapamycin] | potently inhibit |
| C=CC[C@@H]1/C=C(\C)C[C@H](C)C[C@H](OC)[C@H]2O[C@@](O)(C(=O)C(=O)N3CCCC[C@H]3C(=O)O[C@H](/C(C)=C/[C@@H]3CC[C@@H](O)[C@H](OC)C3)[C@H](C)[C@@H](O)CC1=O)[C@H](C)C[C@@H]2OC [FK506] | potently inhibit |
